Test results taken from article PMC12790717.
Results are given in words; binding and its absence hold for the method and conditions named. In cells and extracts the contact can be indirect. Here binding means that the protein was enriched with, or labelled near, the bait; the list need not be complete.

Chains of the proteins cited; added tags and fusions are not shown.
UniProt P09874: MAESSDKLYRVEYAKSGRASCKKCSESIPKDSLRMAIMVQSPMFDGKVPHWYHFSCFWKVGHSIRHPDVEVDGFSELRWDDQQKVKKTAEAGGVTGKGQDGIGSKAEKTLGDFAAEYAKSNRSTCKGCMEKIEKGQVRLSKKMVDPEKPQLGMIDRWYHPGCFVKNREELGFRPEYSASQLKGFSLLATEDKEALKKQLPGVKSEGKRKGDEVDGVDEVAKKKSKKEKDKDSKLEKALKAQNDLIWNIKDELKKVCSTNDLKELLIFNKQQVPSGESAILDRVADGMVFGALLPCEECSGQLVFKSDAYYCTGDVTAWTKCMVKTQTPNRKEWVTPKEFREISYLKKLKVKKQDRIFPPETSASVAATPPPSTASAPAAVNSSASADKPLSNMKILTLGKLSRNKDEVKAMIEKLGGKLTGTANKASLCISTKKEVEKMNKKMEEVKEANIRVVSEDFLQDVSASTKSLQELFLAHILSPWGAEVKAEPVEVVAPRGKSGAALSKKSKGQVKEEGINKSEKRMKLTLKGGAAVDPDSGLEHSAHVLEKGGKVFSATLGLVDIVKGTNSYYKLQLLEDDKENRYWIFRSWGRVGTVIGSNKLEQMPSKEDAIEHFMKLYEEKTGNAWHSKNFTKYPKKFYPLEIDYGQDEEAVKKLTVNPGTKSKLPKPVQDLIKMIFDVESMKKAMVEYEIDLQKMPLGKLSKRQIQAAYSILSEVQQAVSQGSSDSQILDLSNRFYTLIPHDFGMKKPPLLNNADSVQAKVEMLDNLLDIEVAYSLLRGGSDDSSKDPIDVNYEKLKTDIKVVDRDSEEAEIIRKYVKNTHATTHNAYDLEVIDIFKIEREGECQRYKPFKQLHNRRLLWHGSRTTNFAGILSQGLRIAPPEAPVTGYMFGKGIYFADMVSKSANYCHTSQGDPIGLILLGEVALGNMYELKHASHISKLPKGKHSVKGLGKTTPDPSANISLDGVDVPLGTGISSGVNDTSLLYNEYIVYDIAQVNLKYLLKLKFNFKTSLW
UniProt P51608: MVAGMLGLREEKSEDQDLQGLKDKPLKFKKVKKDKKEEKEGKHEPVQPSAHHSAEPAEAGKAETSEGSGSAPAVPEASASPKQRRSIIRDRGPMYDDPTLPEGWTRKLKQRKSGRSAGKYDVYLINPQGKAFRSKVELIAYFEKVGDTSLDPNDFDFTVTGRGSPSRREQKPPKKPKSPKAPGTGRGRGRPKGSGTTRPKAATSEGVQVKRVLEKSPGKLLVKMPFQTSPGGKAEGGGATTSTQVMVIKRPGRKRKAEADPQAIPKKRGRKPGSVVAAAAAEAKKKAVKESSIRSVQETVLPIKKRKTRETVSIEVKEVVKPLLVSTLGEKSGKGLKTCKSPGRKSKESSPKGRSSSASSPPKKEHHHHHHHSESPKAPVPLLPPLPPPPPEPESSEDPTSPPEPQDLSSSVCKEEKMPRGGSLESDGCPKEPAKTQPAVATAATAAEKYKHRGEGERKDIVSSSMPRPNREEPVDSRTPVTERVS
UniProt Q16531: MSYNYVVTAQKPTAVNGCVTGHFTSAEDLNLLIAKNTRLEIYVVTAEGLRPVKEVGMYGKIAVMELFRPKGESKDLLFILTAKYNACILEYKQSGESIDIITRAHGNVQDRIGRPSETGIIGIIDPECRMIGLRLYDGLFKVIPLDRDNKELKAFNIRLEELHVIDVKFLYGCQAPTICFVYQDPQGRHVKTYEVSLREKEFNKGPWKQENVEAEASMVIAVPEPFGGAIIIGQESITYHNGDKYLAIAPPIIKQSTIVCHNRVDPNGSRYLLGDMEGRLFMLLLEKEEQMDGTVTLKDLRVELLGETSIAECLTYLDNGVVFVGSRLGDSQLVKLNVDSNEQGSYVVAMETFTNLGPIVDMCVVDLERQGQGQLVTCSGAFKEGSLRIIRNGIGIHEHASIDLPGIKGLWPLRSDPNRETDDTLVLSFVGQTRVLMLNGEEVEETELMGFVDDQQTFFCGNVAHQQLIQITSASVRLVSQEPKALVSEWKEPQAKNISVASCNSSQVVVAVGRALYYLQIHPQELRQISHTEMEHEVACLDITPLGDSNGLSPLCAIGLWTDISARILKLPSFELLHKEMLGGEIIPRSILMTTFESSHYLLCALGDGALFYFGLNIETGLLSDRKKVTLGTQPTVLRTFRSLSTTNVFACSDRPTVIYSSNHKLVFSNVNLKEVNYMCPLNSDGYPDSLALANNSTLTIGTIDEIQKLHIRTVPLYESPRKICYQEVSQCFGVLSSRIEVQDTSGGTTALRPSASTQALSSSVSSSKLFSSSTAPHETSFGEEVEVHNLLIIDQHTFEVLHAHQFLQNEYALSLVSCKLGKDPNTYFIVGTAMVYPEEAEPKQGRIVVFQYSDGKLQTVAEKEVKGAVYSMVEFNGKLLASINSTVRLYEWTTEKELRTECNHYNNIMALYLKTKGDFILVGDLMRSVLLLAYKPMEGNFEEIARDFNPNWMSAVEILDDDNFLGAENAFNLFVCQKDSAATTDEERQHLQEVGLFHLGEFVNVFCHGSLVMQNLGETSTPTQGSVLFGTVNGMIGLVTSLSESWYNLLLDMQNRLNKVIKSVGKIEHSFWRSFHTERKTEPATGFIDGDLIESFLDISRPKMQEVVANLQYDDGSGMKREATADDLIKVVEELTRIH
UniProt P11387: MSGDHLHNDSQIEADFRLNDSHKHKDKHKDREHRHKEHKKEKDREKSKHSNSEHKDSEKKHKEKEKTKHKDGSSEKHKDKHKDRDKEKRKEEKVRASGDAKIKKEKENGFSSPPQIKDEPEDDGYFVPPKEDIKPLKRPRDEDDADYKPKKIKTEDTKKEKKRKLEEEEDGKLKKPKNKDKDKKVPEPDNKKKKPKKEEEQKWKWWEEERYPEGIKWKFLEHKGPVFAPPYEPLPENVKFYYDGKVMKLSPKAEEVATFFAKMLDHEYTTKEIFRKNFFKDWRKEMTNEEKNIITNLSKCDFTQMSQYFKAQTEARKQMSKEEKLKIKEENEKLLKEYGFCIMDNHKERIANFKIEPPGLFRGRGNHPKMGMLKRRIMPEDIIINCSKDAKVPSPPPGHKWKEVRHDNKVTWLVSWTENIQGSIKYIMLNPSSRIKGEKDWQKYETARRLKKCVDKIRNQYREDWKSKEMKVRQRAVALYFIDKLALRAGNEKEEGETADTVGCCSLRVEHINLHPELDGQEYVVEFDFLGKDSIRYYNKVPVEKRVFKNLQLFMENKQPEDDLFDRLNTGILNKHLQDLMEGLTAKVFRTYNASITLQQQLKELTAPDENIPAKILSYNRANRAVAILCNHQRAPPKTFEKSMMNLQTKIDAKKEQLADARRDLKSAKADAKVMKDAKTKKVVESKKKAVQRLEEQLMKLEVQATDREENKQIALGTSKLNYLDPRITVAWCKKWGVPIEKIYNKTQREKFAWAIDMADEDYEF
UniProt P13010: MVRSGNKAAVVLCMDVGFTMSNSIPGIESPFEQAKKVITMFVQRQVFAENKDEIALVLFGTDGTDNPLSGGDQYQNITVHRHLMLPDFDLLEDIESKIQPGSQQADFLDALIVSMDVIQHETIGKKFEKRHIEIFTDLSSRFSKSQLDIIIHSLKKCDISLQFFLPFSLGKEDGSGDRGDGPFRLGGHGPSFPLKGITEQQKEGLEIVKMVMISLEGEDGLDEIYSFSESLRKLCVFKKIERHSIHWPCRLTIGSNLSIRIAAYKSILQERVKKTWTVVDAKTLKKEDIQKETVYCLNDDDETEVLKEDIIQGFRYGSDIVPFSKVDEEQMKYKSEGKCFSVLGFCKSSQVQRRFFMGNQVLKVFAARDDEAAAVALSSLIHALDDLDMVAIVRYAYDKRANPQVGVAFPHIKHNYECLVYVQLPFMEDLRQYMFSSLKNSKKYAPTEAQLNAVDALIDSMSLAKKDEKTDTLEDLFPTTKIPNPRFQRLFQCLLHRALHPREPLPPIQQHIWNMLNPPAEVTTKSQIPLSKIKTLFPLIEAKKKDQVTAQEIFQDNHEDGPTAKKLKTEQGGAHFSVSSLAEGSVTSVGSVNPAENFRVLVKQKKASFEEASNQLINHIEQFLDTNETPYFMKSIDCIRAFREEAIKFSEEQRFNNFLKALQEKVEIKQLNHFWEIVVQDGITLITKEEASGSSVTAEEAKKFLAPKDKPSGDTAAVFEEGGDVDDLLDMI

Tests used:
[1] = molecular target: PARP1 (human (endogenous in hiPSC-derived neurons)) (UniProt P09874); test: affinity purification with mass spectrometry; PARP1 antibody used to pull down PARP1 as bait from nuclear lysate of human neurons; compared with the minus antibody condition
[2] = molecular target: Methyl-CpG-binding protein 2 (MECP2) (human (endogenous in hiPSC-derived neurons)) (UniProt P51608); test: affinity purification with mass spectrometry; IP with an MECP2 antibody from nuclei of two wild-type neuronal lines (R16/R18); compared with samples without antibody and with nuclei from neurons lacking MECP2

| binding [1] | binding [2] | Substance |
| --- | --- | --- |
| binds |  | Methyl-CpG-binding protein 2 (MECP2) (from UniProt P51608 1-486) |
|  | binds | DDB1 (from UniProt Q16531 1-1140) |
|  | binds | PARP1 (from UniProt P09874 1-1014) (enzyme) |
|  | binds | TOP1 (from UniProt P11387 1-765) (enzyme) |
|  | binds | XRCC5 (from UniProt P13010 1-732) |
